# Patent US20250011456A1, “ANTIBODIES AGAINST CD14 AND USES THEREOF” (Villanelle Life Science Inc, priority 2023, published 2025)
# Amino acid sequences for entries named in this document (tags omitted). Residues count along the entry.
# UniProt P08571, residues 20-352: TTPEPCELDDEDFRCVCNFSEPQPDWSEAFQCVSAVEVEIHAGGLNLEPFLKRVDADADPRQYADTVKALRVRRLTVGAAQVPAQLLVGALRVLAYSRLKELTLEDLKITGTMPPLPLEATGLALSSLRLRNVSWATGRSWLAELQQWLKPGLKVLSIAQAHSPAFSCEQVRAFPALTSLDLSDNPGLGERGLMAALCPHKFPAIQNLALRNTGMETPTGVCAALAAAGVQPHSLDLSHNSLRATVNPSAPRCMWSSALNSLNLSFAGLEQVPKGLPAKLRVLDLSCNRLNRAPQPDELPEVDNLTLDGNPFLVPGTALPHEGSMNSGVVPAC
# Positions count from the first letter of the chain named. These are yes or no findings as the source states them, for the method shown. Some entries that bind do so weakly or less than the wild type.
# B1: Antibody No. D6DD3D012 (HU1127-hVH1/hVL3) (antibody, human IgG1, kappa, V domains shown)
# VH: QVQLQESGPGLVKPSQTLSLTCTVSGGSISSDSAWNWIRQHPGKGLEWIGYISYSGSTSYNPSLKSRVTISRDTSKNQFSLKLSSVTAADTAVYYCVRGLRFAYWGQGTLVTVSS
# VL: DIQLTQSPSSLSASVGDRVTITCRASESVDSYVNSFLHWYQQKPGKAPKLLIYRASNLQSGVPSRFSGSGSRTDFTLTISSLQPEDVATYYCQQSNEDPYTFGQGTKLEIKR
# B2: Antibody No. D6DD3D002 (HU1127-hVH1/hVL1) (antibody, human IgG1, kappa, V domains shown)
# VH: B1 VH
# VL: EIVLTQSPATLSLSPGERATLSCRASESVDSYVNSFLHWYQQKPGQAPRLLIYRASNLQSGIPARFSGSGSRTDFTLTISSLEPEDVAVYYCQQSNEDPYTFGQGTKLEIKR
# B3: Antibody No. MPDDAD003 (HU1127-hVH3/hVL3-3) (antibody, V domains shown)
# VH: B1 VH with V2L, Q16E, H41P
# VL: DIQLTQSPSSLSASVGDRVTITCRASESVDSYVTSFLHWYQQKPGKAPKLLIYRASNLQSGVPSRFSGSGSRTDFTLTISSLQPEDVATYYCQQSNEDPYTFGQGTKLEIK
# B4: Antibody No. D6DD3D007 (HU1127-hVH1/hVL2) (antibody, human IgG1, kappa, V domains shown)
# VH: B1 VH
# VL: DIVLTQSPDSLAVSLGERATINCRASESVDSYVNSFLHWYQQKPGQPPKLLIYRASNLQSGVPDRFSGSGSRTDFTLTISSLQAEDVAVYYCQQSNEDPYTFGQGTKLEIKR
# B5: Antibody No. D6DD3D001 (HU1127-mVH/mVL) (antibody, human IgG1, kappa, V domains shown)
# VH: DVQLQQSGPGLVKPSQSLSLTCTVTGYSITSDSAWNWIRQFPGNRLEWMGYISYSGSTSYNPSLKSRISITRDTSKNQFFLQLNSVTTEDTATYYCVRGLRFAYWGQGTLVTVSS
# VL: DIVLTQSPASLAVSLGQRATISCRASESVDSYVNSFLHWYQQKPGQPPKLLIYRASNLQSGIPARFSGSGSRTDFTLTINPVEADDVATYYCQQSNEDPYTFGGGTKLEIKR
# Molecular target: Recombinant Human CD14/His Protein (B294801) (human) (UniProt P08571)
# Assay: SPR (Biacore 8K)
row,binding,Binder
1,binds,B1
2,binds,B2
3,binds,B3
4,binds,B4

# Molecular target: Recombinant Human CD14/His Protein (B294801) (human) (UniProt P08571)
# Assay: SPR (Biacore platform)
row,binding,Binder
1,binds,B3

# Molecular target: Recombinant Human CD14/His Protein (B294801) (human) (UniProt P08571)
# Assay: SPR (Biacore 8K), antibody captured on Protein A chip, CD14-His as analyte at 0.78125-25 nM
row,binding,Binder
1,binds,B1
2,binds,B2
3,binds,B4
4,binds,B5
